## Percent effect of library compounds

Protein sequences, listed by entry. Tags and fused reporters are not part of them.
UniProt I6X8D2, whole entry: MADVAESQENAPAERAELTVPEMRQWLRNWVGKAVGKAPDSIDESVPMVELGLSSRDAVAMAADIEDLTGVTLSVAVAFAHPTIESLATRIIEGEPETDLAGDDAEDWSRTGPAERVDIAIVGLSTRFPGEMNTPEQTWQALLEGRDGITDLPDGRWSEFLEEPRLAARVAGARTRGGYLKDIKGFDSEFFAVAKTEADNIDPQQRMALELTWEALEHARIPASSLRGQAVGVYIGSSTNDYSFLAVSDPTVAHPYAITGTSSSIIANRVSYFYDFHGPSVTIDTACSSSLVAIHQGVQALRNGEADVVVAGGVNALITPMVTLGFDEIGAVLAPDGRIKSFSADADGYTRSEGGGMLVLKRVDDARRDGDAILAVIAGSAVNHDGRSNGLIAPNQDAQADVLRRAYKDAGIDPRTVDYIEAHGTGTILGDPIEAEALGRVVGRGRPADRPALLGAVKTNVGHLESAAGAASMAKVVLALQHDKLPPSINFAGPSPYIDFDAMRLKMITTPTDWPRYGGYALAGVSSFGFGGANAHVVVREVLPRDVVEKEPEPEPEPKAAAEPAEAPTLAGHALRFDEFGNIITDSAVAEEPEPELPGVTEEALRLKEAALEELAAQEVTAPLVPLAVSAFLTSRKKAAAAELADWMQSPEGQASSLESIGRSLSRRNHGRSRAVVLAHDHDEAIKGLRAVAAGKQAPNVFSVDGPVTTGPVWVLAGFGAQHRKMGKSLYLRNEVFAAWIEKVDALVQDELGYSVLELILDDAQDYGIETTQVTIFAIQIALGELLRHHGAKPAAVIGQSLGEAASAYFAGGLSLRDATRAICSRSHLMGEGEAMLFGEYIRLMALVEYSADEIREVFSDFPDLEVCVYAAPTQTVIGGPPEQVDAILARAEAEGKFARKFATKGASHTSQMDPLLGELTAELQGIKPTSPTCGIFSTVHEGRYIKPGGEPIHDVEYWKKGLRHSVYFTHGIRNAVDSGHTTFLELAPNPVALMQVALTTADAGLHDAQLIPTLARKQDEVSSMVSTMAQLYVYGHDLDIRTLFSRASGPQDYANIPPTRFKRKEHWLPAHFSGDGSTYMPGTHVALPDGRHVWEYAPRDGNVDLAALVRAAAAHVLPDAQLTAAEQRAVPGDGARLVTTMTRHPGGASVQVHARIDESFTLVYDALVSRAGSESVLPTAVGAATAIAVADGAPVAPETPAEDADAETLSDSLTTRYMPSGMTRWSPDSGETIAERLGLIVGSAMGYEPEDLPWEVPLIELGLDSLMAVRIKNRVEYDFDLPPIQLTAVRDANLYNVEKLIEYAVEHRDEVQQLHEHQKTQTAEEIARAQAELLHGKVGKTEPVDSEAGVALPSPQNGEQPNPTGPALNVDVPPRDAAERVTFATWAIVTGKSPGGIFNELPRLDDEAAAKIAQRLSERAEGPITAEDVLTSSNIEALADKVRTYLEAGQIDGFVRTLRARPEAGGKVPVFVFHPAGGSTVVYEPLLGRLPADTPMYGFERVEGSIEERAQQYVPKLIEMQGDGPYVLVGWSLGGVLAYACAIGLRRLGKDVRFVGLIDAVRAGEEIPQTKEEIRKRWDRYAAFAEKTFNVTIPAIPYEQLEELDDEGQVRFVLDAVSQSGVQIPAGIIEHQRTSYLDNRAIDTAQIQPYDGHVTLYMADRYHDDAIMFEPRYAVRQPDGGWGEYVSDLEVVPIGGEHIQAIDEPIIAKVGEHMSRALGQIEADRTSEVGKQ

Measurements from “University of Dundee, Small-Polar-MMV Screening Library” (2021), ChEMBL document CHEMBL3988442.

Values are the deposited “Percent Effect”, in %.
The controls that fix the scale are not given in the record; negative values are as filed.
This is an unselected part of the compounds tested.
A dash means the value is not listed here; it may have been measured.

A: 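Assay of Toxoplasma gondii numbers, read through their beta-galactosidase reporter with a colour substrate. Tested at 10 µM. Higher reads as fewer parasites (inferred from which compounds were picked for retests). About 67,000 compounds were tested under these conditions; 0.38% (about 260) showed 50% or more at least once.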
B: 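Enzyme assay of the thioesterase domain of polyketide synthase 13; the read-out is not stated. Target: Polyketide synthase Pks13, Mycobacterium tuberculosis (UniProt I6X8D2). Concentration: 30 µM. Higher reads as stronger inhibition (inferred from which compounds were picked for retests). Size under these conditions: about 67,000 compounds, about 300 of them at 50% or above in at least one test.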

For CN1CCCC1c1ccnc(C(=O)N(C)C2CCCCC2)c1 (configuration not stated) the result was A: 1.179%; B: 5.638%. O=C(C1=CCCCC1)N1CCO[C@H]2[C@H](Oc3ccccn3)CC[C@@H]21 gave B: -30.65%. With Cc1cc2ccccc2n1CCC(=O)NCCN(C)S(C)(=O)=O the screen gave A: -3.387%; B: 11.26%. CC(C)(C)c1n[nH]cc1CNC1CCC(OCC(F)(F)F)CC1 (configuration not stated) gave B: 2.93%. [H][C@]12C[C@H](C(=O)NC)N(S(C)(=O)=O)[C@@]1([H])CN(C(=O)c1ccoc1)C2 gave A: 6.231%. For CCc1cnccc1C(=O)NC1CCN(Cc2ccccc2F)CC1 the result was A: 1.162%; B: 1.433%.

CCCc1cc(C(=O)N[C@@H]2CCC[C@@H](N3CCCC3)[C@@H]2O)no1 gave A: -21.55%; B: 1.631%. Cc1ccc(S(=O)(=O)NCc2cccc(C(=O)N3CCCC3)c2)cc1F gave A: 4.374%; B: -21.83%. Result for O=C(CCCOc1ccc(F)cc1)N1CCCC(n2cccn2)C1 (configuration not stated) was A: -4.903%; B: -22.24%. Result for CC1(C)CCC(C(=O)N2CCCO2)c2ccccc21 (configuration not stated) was A: 0.8403%; B: -3.137%. For CCN1CCN(C)C(=O)C12CCN(Cc1csc(C)n1)CC2 the result was B: 7.63%. Cc1nnc(N2C[C@@H](Oc3ccccn3)[C@H]3OCCC[C@H]32)s1 gave B: -5.846%.

With O=C(COc1cccc2c1CCC2=O)NCc1ccccc1F the screen gave A: 1.357%; B: -16.59%. With CC(=O)NCc1ccc(C(=O)N2CCCC(n3cncn3)C2)o1 (configuration not stated) the screen gave A: -3.704%; B: -15.12%. c1cc(C2CC2)n2cnc(C3CN(Cc4nccs4)CCO3)c2c1 (configuration not stated) read B: -29.65%. Result for Cc1cccc(-c2ccc(C(=O)NCCN3CCOCC3)c(=O)[nH]2)c1 was A: 6.095%; B: -15.75%. Result for COc1ccccc1N1CCN(C(=O)Cn2nccc2C)CC1(C)C was A: -28.61%; B: -25.63%. Result for CCc1cnc(N)nc1NCCC(=O)NC1CCCCC1 was A: -26.1%; B: -16.49%.

CCS(=O)(=O)N1CCN(C(C)c2ccccc2OC)CC1 (configuration not stated) read A: -2.179%; B: -11.61%. For CC(=O)N1CCOC[C@H](OCC(=O)N(C)C)C1 the result was A: -2.95%; B: 23.34%. For O=C(N[C@@H]1C[C@H]2CC[C@@H]1C2)C1(Oc2ccc(Cl)cc2)CCNCC1 the result was B: -13.26%. With Cc1ccc(F)c(C(=O)N2CCN(S(C)(=O)=O)[C@@H](C)C2)c1 the screen gave A: 2.737%; B: -7.573%. For Cc1ccc(-c2cnnc(NCC3CCOCC3)n2)o1 the result was A: -1.095%; B: -4.195%. For Cc1c(-c2cnn(C)c2)nc(N)c(C#N)c1-c1ccc(CO)o1 the result was A: -2.091%; B: -3.127%.

With CN(Cc1cn2c(n1)CN(C(=O)c1ccc[nH]1)CC2)Cc1ccco1 the screen gave B: -36.8%. O=C(O)C(F)(F)F.O=C(O)C(F)(F)F.c1cncc(N2CCCn3nnc(CN4CCCCC4)c3C2)c1 read A: -2.125%. COCC1CCN(CCCc2cccc(OC)c2)CC1 gave A: -3.35%; B: -23.05%. COCC(=O)N1CCC2(CCN(Cc3cccnc3)C2)CC1.O=C(O)C(F)(F)F.O=C(O)C(F)(F)F gave A: 10.24%. For CCc1cc(NCc2cc3n(n2)CCCN(S(C)(=O)=O)C3)nc(C)n1 the result was A: -6.522%; B: -3.511%. For CNc1cc(C)nc(C2COCCN2CCc2ccc(F)cc2)n1 (configuration not stated) the result was A: -3.603%; B: 0.5305%.

C/C(NC(=O)c1cccs1)=C1\C(=O)C[C@@H]2[C@H]1C2(C)C gave B: 33.28%. O=C(Cc1cccs1)N1CCC2(CC1)COCCN2CC1CC1.O=C(O)C(F)(F)F read A: -2.869%. For Cc1ccccc1C(CC(=O)N1CCc2sccc2C1)NC(N)=O (configuration not stated) the result was A: -4.648%; B: 6.62%. For O=C1CCC2(CCNCC2)CN1Cc1nnc2ccccn12 the result was A: 12.23%; B: -6.849%. With Cc1n[nH]c(C)c1NC(=O)CN1CCCC1Cn1cncn1 (configuration not stated) the screen gave A: -35.61%; B: -2.113%. Result for c1ccc2oc(CCCN3CCc4cncnc4C3)nc2c1 was A: -1.133%; B: 11.43%.

With OC1CCN(Cc2c(C3CCCNC3)[nH]c3ncccc23)CC1 (configuration not stated) the screen gave B: -14.22%.

For reference, 4 entries once more:

| structure | A | B |
|---|---|---|
| `CCc1cnc(N)nc1NCCC(=O)NC1CCCCC1` | -26.1 | -16.49 |
| `O=C1CCC2(CCNCC2)CN1Cc1nnc2ccccn12` | 12.23 | -6.849 |
| `COCC(=O)N1CCC2(CCN(Cc3cccnc3)C2)CC1.O=C(O)C(F)(F)F.O=C(O)C(F)(F)F` | 10.24 | - |
| `[H][C@]12C[C@H](C(=O)NC)N(S(C)(=O)=O)[C@@]1([H])CN(C(=O)c1ccoc1)C2` | 6.231 | - |